In PubChem BioAssay AID1782 (National Center for Advancing Translational Sciences (NCATS), 2009):
This list was built around the results that the source calls inconclusive (neither active nor inactive); the mix of calls is not that of the screen. Potencies beside an inconclusive call are fits to weak or partial responses and may not hold up. Active and inactive are the calls of the source. Calls follow the shape of the dose curve; as a rule, active = well fitted curve in the direction sought with a large enough effect; inconclusive = small, poorly fitted or top-dose-only effect, or another doubt; inactive = no such curve, though single readings can be large or run the other way.

Chains of the proteins cited; added tags and fusions are not shown. Lines headed by an entry give the natural chain unless they say otherwise; changes in a name come on top.
UniProt P30613: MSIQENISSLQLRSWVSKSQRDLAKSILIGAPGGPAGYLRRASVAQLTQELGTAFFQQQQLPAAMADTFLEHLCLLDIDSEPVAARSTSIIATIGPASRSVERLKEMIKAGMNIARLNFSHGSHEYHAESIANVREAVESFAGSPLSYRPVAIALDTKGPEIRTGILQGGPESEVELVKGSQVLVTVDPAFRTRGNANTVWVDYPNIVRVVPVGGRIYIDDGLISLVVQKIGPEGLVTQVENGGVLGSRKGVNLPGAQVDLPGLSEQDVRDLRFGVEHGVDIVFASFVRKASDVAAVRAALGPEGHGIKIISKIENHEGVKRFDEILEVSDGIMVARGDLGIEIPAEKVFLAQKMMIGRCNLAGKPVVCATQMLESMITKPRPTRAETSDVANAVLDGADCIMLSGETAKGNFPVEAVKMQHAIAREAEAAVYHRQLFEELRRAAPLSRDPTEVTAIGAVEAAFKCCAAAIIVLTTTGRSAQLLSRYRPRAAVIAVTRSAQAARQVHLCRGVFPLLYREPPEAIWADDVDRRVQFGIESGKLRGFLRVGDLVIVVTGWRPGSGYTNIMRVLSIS

target: Pyruvate kinase PKLR (Homo sapiens) (UniProt P30613); assay: Confirmation Concentration-Response Assay for Activators of Human Reticulocyte Pyruvate Kinase; details: purified hPK-R, Kinase-Glo ATP luminescence, 1 h; series mostly up to 57.5 µM
Text: Confirmatory assay NIH Chemical Genomics Center [NCGC] Wael M. Rabeh, Lyudmila Nedyalkova and Hee-Wan Park [Structural Genomics Consortium, 100 College St. Toronto, Ontario, Canada] NCGC Assay Overview: Human pyruvate kinase reticulocyte (hPK-R) enzyme was supplied as a highly purified (>95% pure) preparation from Structural Genomics Consortium in Toronto (Ontario, Canada) and assayed for its ability to generate ATP from ADP using phosphoenolpyruvate (PEP) as a substrate. ATP generation was detected in a coupled reaction by luciferase-mediated luminescence, an ATP-dependent process. Pyruvate kinase substrates, PEP and ADP, were present in the assay at Km and approximately 10-fold below Km respectively. The enzyme was assayed at an intermediate level of activity to screen for both inhibitors and activators.
NCGC Assay Protocol Summary for R-isoform Three uL of substrate mix (at r.t.) in assay buffer (50 mM Imidazole pH7.2, 50 mM KCl, 7 mM MgCl2, 0.01% Tween 20, 0.05% BSA) was dispensed into white solid bottom 1,536 well microtiter plates so that the final concentrations of substrates in the assay were 0.1 mM ADP and 0.5 mM PEP. 23 nL of compound were delivered by a pin tool and 1 uL of enzyme mix (final concentration of 0.1 nM) in assay buffer (4 degree Celsius) was added. Plates were incubated at room temperature for 1 hour. Two uL of detection mix (Kinase-Glo, Promega; at 4 degree Celsius protected from light) was added and luminescence read by a ViewLux (Perkin Elmer) at 1 second exposure/plate. Data were normalized to the uninhibited (row 31). Additionally, a no enzyme and 5-fold enzyme control was dispensed in row 32, split equally between the two conditions.

Potency, inconclusive:
O=S(=O)(c1ccc2c(c1)OCCO2)N1CCN(S(=O)(=O)c2cc(F)c(F)cc2F)CC1 199 nM [rising, full curve], O=S(=O)(c1ccc2c(c1)OCCO2)N1CCN(S(=O)(=O)c2c(F)cccc2F)CC1 447 nM [rising, full curve, poor fit], O=S(=O)(NCC1CN(S(=O)(=O)c2ccc3c(c2)OCCO3)C1)c1c(F)cccc1F 5620 nM [rising, full curve], CC(O)c1cc2c(s1)c1cnn(Cc3ccccc3F)c(=O)c1n2C (stereo unspecified) 1000 nM [rising, full curve, poor fit], O=S(=O)(c1ccc2c(c1)OCCO2)N1CCN(S(=O)(=O)c2ccc(F)cc2F)CC1 708 nM [rising, full curve], O=C1CN(S(=O)(=O)c2c(F)cccc2F)CCN1S(=O)(=O)c1ccc2c(c1)OCCO2 158 nM [rising, full curve], O=S(=O)(NCCCNS(=O)(=O)c1c(F)cccc1F)c1ccc2c(c1)OCCO2 8910 nM [rising, partial curve], O=S(=O)(c1cccc(F)c1)N1CCN(S(=O)(=O)c2ccc3c(c2)OCCO3)CC1 501 nM [rising, full curve]

Potency, inactive:
COC(=O)c1cc2c(s1)c1cnn(Cc3ccccc3F)c(=O)c1n2C, Cc1cc2c(s1)c1cnn(Cc3ccc(Cl)cc3)c(=O)c1n2C, COc1cc2c(s1)c1cnn(Cc3ccccc3F)c(=O)c1n2C, CC(C)c1cc2c(s1)c1cnn(Cc3ccccc3F)c(=O)c1n2C, COc1ccc(S(=O)(=O)N2CCN(S(=O)(=O)c3ccc(OC)cc3)CC2)cc1, CSc1cc2c(s1)c1cnn(Cc3ccccc3F)c(=O)c1n2C, Cc1cc2c(s1)c1cnn(Cc3ccccc3Cl)c(=O)c1n2C, O=S(=O)(c1ccc2c(c1)OCCCO2)N1CCN(S(=O)(=O)c2c(F)cccc2F)CC1
